Experimental findings from publication PMC6042961 are described below.

Sequences of proteins named here, by UniProt entry; tags and fusion partners are left off. A change or cut given only in a name is not applied to a line headed by its entry.
UniProt Q80WQ6: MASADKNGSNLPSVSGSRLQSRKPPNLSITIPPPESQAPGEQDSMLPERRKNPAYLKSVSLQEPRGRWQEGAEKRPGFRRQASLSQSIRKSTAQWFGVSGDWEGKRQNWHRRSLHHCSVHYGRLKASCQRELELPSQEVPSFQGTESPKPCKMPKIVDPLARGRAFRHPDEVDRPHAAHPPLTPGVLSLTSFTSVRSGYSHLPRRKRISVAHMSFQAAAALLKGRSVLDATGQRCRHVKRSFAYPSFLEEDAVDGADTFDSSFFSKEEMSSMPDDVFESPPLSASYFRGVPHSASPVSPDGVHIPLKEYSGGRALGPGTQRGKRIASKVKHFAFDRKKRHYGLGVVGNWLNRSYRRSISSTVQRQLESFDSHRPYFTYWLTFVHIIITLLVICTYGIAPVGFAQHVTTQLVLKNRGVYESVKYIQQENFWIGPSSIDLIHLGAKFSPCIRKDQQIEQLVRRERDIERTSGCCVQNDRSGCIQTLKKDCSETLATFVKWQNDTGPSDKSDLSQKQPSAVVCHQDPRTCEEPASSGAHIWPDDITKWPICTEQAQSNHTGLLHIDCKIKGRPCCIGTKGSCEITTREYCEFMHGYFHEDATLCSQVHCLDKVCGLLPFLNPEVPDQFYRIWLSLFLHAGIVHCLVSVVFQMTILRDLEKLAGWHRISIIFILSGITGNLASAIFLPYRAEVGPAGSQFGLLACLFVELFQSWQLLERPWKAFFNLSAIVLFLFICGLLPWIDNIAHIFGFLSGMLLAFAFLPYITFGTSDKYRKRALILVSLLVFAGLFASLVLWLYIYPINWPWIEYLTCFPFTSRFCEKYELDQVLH

This assay has as its target mouse iRhom2^pDEAD-3xHA (mouse) (UniProt Q80WQ6). Put plainly: co-IP; lysates in 1% Triton X-100, 150 mM NaCl, 50 mM Tris-HCl pH 7.5; anti-HA or anti-V5 magnetic beads 1 hr at 4°C; wash with 300 mM NaCl; western blot; HEK293T cells (wild type, ADAM17 KO, FRMD8 KO, or iRhom1/2 DKO reconstituted with iRhom2^WT-3xHA; with or without 200 nM PMA for 30 min). (In general: Immunoblotting shows a protein as a band on a membrane.)

These are yes or no findings as the source states them, for the method shown. In cells and extracts the contact can be indirect. Binding can be weak; no strength is given. Where a sequence is shown, tags or fusion partners need not be part of it.

B1: human FRMD8-V5 (protein, UniProt Q9BZ67-1 1-464)
chain: MDGTEGSAGQPGPAERSHRSSVSSVGARAADVLVYLADDTVVPLAVENLPSLSAHELHRAVREVLQLPDIALDVFALWLVSPLLEVQLKPKHQPYKLGRQWPELLLRFTSAPDDDVAMDEPFLQFRRNVFFPKRRELQIHDEEVLRLLYEEAKGNVLAARYPCDVEDCEALGALVCRVQLGPYQPGRPAACDLREKLDSFLPAHLCKRGQSLFAALRGRGARAGPGEQGLLNAYRQVQEVSSDGGCEAALGTHYRAYLLKCHELPFYGCAFFHGEVDKPAQGFLHRGGRKPVSVAISLEGVHVIDSREKHVLLGLRFQELSWDHTSPEEEEPILWLEFDGDSEGTPVNKLLKIYSKQAELMSSLIEYCIELSQAAEPAGPQDSATGSPSDPSSSLAPVQRPKLRRQGSVVSSRIQHLSTIDYVEDGKGIRRVKPKRTTSFFSRQLSLGQGSYTVVQPGDSLEQG
For the molecule B1, the binding entry is “binds”.
